Measurements reported in article PMC12585908, “Proteolytic cleavage activates the mitochondrial isoform of TOP3A”.
Results are given in words; binding and its absence hold for the method and conditions named. Some results given as binding are weak or reduced against the parent protein; the word gives no strength.

Target: T1, Mas2 subunit of the yeast mitochondrial processing peptidase (MPP) (yeast) (UniProt P11914)
T1 sequence: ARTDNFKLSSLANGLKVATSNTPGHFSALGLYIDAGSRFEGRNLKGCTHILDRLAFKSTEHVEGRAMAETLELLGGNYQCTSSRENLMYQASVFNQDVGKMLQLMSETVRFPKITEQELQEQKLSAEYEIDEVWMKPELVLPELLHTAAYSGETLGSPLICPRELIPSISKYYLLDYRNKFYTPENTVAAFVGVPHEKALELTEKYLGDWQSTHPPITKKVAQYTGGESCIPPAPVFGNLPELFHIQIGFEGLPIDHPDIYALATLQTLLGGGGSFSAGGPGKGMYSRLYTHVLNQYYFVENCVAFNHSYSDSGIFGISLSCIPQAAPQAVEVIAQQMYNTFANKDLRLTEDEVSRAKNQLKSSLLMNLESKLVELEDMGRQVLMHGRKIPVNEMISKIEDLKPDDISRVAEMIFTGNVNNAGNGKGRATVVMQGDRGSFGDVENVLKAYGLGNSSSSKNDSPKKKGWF
Assay: co-purification; Mas1 and Mas2 expressed from one 6 x His-tagged MPP construct in E. coli; purified together over nickel affinity gel, HiTrap Heparin and MonoQ; complex shown on SDS-PAGE

binding: binds
B1: Mas1 subunit of the yeast mitochondrial processing peptidase (MPP) (enzyme, UniProt P10507 21-462)
chain: SQIPGTRTSKLPNGLTIATEYIPNTSSATVGIFVDAGSRAENVKNNGTAHFLEHLAFKGTQNRSQQGIELEIENIGSHLNAYTSRENTVYYAKSLQEDIPKAVDILSDILTKSVLDNSAIERERDVIIRESEEVDKMYDEVVFDHLHEITYKDQPLGRTILGPIKNIKSITRTDLKDYITKNYKGDRMVLAGAGAVDHEKLVQYAQKYFGHVPKSESPVPLGSPRGPLPVFCRGERFIKENTLPTTHIAIALEGVSWSAPDYFVALATQAIVGNWDRAIGTGTNSPSPLAVAASQNGSLANSYMSFSTSYADSGLWGMYIVTDSNEHNVQLIVNEILKEWKRIKSGKISDAEVNRAKAQLKAALLLSLDGSTAIVEDIGRQVVTTGKRLSPEEVFEQVDKITKDDIIMWANYRLQNKPVSMVALGNTSTVPNVSYIEEKLNQ
